These are yes or no findings as the source states them, for the method shown. For some assays here: Binding calls can cover weak binding; strength is not graded here. Tags and fused reporters may be left off the sequences shown.
What was measured:
Test in all cases: pull-down; GST pull-down: His–eIF2A (2 nM) with GST–eIF5B derivatives (2 nM each), 4 °C, 1 h, binding buffer (0.2% NP-40, 40 mM HEPES–KOH pH 7.5, 100 mM KCl, 1 mM EDTA, 2.5% BSA); Glutathione Sepharose 4B resin; western blotting with anti-His and anti-GST; both purified
[1] = biological target: GST–eIF5B domains II + III
[2] = biological target: GST–eIF5B domains G + II + III + IV
GST–eIF5B domain IV = biological target: GST–eIF5B domain IV
GST–eIF5B domain III = biological target: GST–eIF5B domain III
[3] = biological target: GST–eIF5B domains III + IV

- binding [1]: no binding (tested: 2 nM)
- binding [2]: binds
- binding (GST–eIF5B domain IV): binds weakly
- binding (GST–eIF5B domain III): no binding (tested: 2 nM)
- binding [3]: binds weakly
B1: His-tagged eIF2A (natural protein, human, UniProt Q9BY44 1-585, looked up)
chain: MAPSTPLLTVRGSEGLYMVNGPPHFTESTVFPRESGKNCKVCIFSKDGTLFAWGNGEKVNIISVTNKGLLHSFDLLKAVCLEFSPKNTVLATWQPYTTSKDGTAGIPNLQLYDVKTGTCLKSFIQKKMQNWCPSWSEDETLCARNVNNEVHFFENNNFNTIANKLHLQKINDFVLSPGPQPYKVAVYVPGSKGAPSFVRLYQYPNFAGPHAALANKSFFKADKVTMLWNKKATAVLVIASTDVDKTGASYYGEQTLHYIATNGESAVVQLPKNGPIYDVVWNSSSTEFCAVYGFMPAKATIFNLKCDPVFDFGTGPRNAAYYSPHGHILVLAGFGNLRGQMEVWDVKNYKLISKPVASDSTYFAWCPDGEHILTATCAPRLRVNNGYKIWHYTGSILHKYDVPSNAELWQVSWQPFLDGIFPAKTITYQAVPSEVPNEEPKVATAYRPPALRNKPITNSKLHEEEPPQNMKPQSGNDKPLSKTALKNQRKHEAKKAAKQEARSDKSPDLAPTPAPQSTPRNTVSQSISGDPEIDKKIKNLKKKLKAIEQLKEQAATGKQLEKNQLEKIQKETALLQELEDLELGI
notes: eukaryotic initiation factor 2A (eIF2A); also called His–eIF2A; eukaryotic initiation factor 2A; source: E. coli M15 (plasmid pQE31/His–eIF2A), purified
